Source: US20140335107A1
Substitutions are numbered along the chain they refer to. No constants are given. Whether binding was seen depends on the method and setting. Some entries that bind do so weakly or less than the wild type.

Sequences of proteins named here, by UniProt entry; tags and fusion partners are left off. A change or cut given only in a name is not applied to a line headed by its entry.
UniProt P40259: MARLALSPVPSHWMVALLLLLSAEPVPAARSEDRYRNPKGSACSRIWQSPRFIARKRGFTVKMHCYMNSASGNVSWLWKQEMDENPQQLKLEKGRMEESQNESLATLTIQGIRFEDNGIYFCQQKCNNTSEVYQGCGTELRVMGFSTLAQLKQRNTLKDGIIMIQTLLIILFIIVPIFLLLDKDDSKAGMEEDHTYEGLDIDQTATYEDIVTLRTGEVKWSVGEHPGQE

B1: huMA79b graft variant with HVR-L2 of SEQ ID NO: 37 (Fab, name in Kabat numbering, V domains shown)
VH: EVQLVESGGGLVQPGGSLRLSCAASGYTFSSYWIEWVRQAPGKGLEWVGEILPGGGDTNYNEIFKGRFTISADTSKNTAYLQMNSLRAEDTAVYYCTRRVPVYFDYWGQGTLVTVSS
VL: DIQMTQSPSSLSASVGDRVTITCKASQSVDYDGDSFLNWYQQKPGKAPKLLIYAARYLRRGVPSRFSGSGSGTDFTLTISSLQPEDFATYYCQQSNEDPLTFGQGTKVEIKR
B2: huMA79b graft variant with HVR-H1 of SEQ ID NO: 68 (Fab, name in Kabat numbering, V domains shown)
VH: B1 VH with T28G, S30T, E35S
VL: B1 VL with R56S, Y57N, R59E, R60S
B3: huMA79b graft variant with HVR-L2 of SEQ ID NO: 41 (Fab, name in Kabat numbering, V domains shown)
VH: B1 VH
VL: B1 VL with Y57K, R59L
B4: huMA79b graft variant with HVR-L2 of SEQ ID NO: 45 (Fab, name in Kabat numbering, V domains shown)
VH: B1 VH
VL: B1 VL with Y57K, R59A
B5: huMA79b graft variant with HVR-L2 of SEQ ID NO: 42 (Fab, name in Kabat numbering, V domains shown)
VH: B1 VH
VL: B1 VL with Y57K, R59K, R60N
B6: huMA79b graft variant with HVR-L3 of SEQ ID NO: 46 (Fab, name in Kabat numbering, V domains shown)
VH: B1 VH
VL: B1 VL with R56S, Y57N, R59E, R60S, E97A
B7: huMA79b graft variant with HVR-H1 of SEQ ID NO: 62 (Fab, name in Kabat numbering, V domains shown)
VH: B1 VH with T28P, S30G, S31R, I34V, E35N
VL: B1 VL with R56S, Y57N, R59E, R60S
B8: huMA79b graft variant with HVR-H1 of SEQ ID NO: 72 (Fab, name in Kabat numbering, V domains shown)
VH: B1 VH with S30R, S31R, E35N
VL: B1 VL with R56S, Y57N, R59E, R60S
B9: huMA79b graft variant with HVR-H1 of SEQ ID NO: 59 (Fab, name in Kabat numbering, V domains shown)
VH: B1 VH with T28S, S30K
VL: B1 VL with R56S, Y57N, R59E, R60S
B10: huMA79b graft variant with HVR-H1 of SEQ ID NO: 56 (Fab, name in Kabat numbering, V domains shown)
VH: B1 VH with T28P, S30T, E35N
VL: B1 VL with R56S, Y57N, R59E, R60S
B11: huMA79b graft variant with HVR-H1 of SEQ ID NO: 64 (Fab, name in Kabat numbering, V domains shown)
VH: B1 VH with T28P, S30T, E35Q
VL: B1 VL with R56S, Y57N, R59E, R60S
B12: huMA79b graft variant with HVR-H1 of SEQ ID NO: 71 (Fab, name in Kabat numbering, V domains shown)
VH: B1 VH with S31G, E35N
VL: B1 VL with R56S, Y57N, R59E, R60S
B13: huMA79b graft variant with HVR-H1 of SEQ ID NO: 65 (Fab, name in Kabat numbering, V domains shown)
VH: B1 VH with T28P, S30R, S31R
VL: B1 VL with R56S, Y57N, R59E, R60S
B14: huMA79b graft variant with HVR-L3 of SEQ ID NO: 53 (Fab, name in Kabat numbering, V domains shown)
VH: B1 VH
VL: B1 VL with R56S, Y57N, R59E, R60S, Q93D, S95R, E97A
B15: huMA79b graft variant with HVR-L3 of SEQ ID NO: 47 (Fab, name in Kabat numbering, V domains shown)
VH: B1 VH
VL: B1 VL with R56S, Y57N, R59E, R60S, E97Q
B16: huMA79b graft variant with HVR-L2 of SEQ ID NO: 38 (Fab, name in Kabat numbering, V domains shown)
VH: B1 VH
VL: B1 VL with Y57R, R60T
B17: huMA79b graft variant with HVR-H1 of SEQ ID NO: 70 (Fab, name in Kabat numbering, V domains shown)
VH: B1 VH with S30T
VL: B1 VL with R56S, Y57N, R59E, R60S
B18: huMA79b graft variant with HVR-L2 of SEQ ID NO: 40 (Fab, name in Kabat numbering, V domains shown)
VH: B1 VH
VL: B1 VL with Y57Q, L58R, R59K
B19: huMA79b graft variant with HVR-H1 of SEQ ID NO: 55 (Fab, name in Kabat numbering, V domains shown)
VH: B1 VH with T28P, S30R, E35Q
VL: B1 VL with R56S, Y57N, R59E, R60S
B20: huMA79b graft variant with HVR-L3 of SEQ ID NO: 52 (Fab, name in Kabat numbering, V domains shown)
VH: B1 VH
VL: B1 VL with R56S, Y57N, R59E, R60S, Q94P, S95D, D98A, L100R
B21: huMA79b graft variant with HVR-H1 of SEQ ID NO: 61 (Fab, name in Kabat numbering, V domains shown)
VH: B1 VH with T28Y, S30T
VL: B1 VL with R56S, Y57N, R59E, R60S
B22: huMA79b graft variant with HVR-H1 of SEQ ID NO: 63 (Fab, name in Kabat numbering, V domains shown)
VH: B1 VH with S30K, S31K
VL: B1 VL with R56S, Y57N, R59E, R60S
B23: huMA79b graft variant with HVR-L3 of SEQ ID NO: 50 (Fab, name in Kabat numbering, V domains shown)
VH: B1 VH
VL: B1 VL with R56S, Y57N, R59E, R60S, E97L
B24: huMA79b graft variant with HVR-H1 of SEQ ID NO: 69 (Fab, name in Kabat numbering, V domains shown)
VH: B1 VH with S30T, I34L, E35S
VL: B1 VL with R56S, Y57N, R59E, R60S
B25: huMA79b graft variant with HVR-L3 of SEQ ID NO: 51 (Fab, name in Kabat numbering, V domains shown)
VH: B1 VH
VL: B1 VL with R56S, Y57N, R59E, R60S, Q93N, Q94N, E97G, T101N
B26: huMA79b graft variant with HVR-L2 of SEQ ID NO: 44 (Fab, name in Kabat numbering, V domains shown)
VH: B1 VH
VL: B1 VL with Y57K, R59G, R60G
B27: huMA79b graft variant with HVR-H1 of SEQ ID NO: 54 (Fab, name in Kabat numbering, V domains shown)
VH: B1 VH with T28P, S30T, S31R, E35S
VL: B1 VL with R56S, Y57N, R59E, R60S
B28: huMA79b graft variant with HVR-L2 of SEQ ID NO: 39 (Fab, name in Kabat numbering, V domains shown)
VH: B1 VH
VL: B1 VL with Y57R, R59G
B29: huMA79b graft variant with HVR-H1 of SEQ ID NO: 58 (Fab, name in Kabat numbering, V domains shown)
VH: B1 VH with S30N, S31R, E35N
VL: B1 VL with R56S, Y57N, R59E, R60S
B30: huMA79b graft variant with HVR-L3 of SEQ ID NO: 49 (Fab, name in Kabat numbering, V domains shown)
VH: B1 VH
VL: B1 VL with R56S, Y57N, R59E, R60S, E97D
B31: huMA79b graft variant with HVR-L2 of SEQ ID NO: 43 (Fab, name in Kabat numbering, V domains shown)
VH: B1 VH
VL: B1 VL with Y57K, R59G, R60T
B32: huMA79b graft variant with HVR-H1 of SEQ ID NO: 66 (Fab, name in Kabat numbering, V domains shown)
VH: B1 VH with T28P, F29V, S30G, S31R, E35S
VL: B1 VL with R56S, Y57N, R59E, R60S

Each binder was assayed against extracellular domain of human CD79b (huCD79becd) (human) (UniProt P40259) (assay: phage selection, Fab on phage).

binding, binds:
B1
B2
B3
B4
B5
B6
B7
B8
B9
B10
B11
B12
B13
B14
B15
B16
B17
B18
B19
B20
B21
B22
B23
B24
B25
B26
B27
B28
B29
B30
B31
B32
